Patent US20120052122A1, “Treatment Of Chronic Obstructive Pulmonary Disease With Phosphodiesterase-4 Inhibitor” (Nycomed GmbH, priority 2010, published 2012)
For at least one compound, name, drawing or mass did not settle the structure.

Test: Human pharmacokinetics
Settings: in vivo

Compound: O=C(Nc1c(Cl)c[n+]([O-])cc1Cl)c1ccc(OC(F)F)c(OCC2CC2)c1 [roflumilast N-oxide]
- Effect of food intake on Cmax and tmax: unaffected
